{
  "source": "the supplement of paper PMC8728848",
  "assay_in_all_cases": "glycan array binding signal (z-score within array); higher = stronger binding",
  "settings_in_all_cases": "glycan notation: IUPAC condensed, linker removed",
  "key": {"[1]": {"target": "Gal(b1-4)GlcNAc(b1-2)Man(a1-6)[Man(a1-3)]Man(b1-4)GlcNAc(b1-4)GlcNAc", "in_short": "(§1)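 The binding signal is a Z-score computed within each array and averaged over linkers. Arrays of the same protein sequence at different concentrations or buffers were also averaged together. Data originate from 3228 arrays in the Consortium for Functional Glycomics database, kept only where the protein sequence was available.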"}, "[2]": {"target": "Gal(b1-4)GlcNAc(b1-2)[Gal(b1-4)GlcNAc(b1-4)]Man(a1-3)[Gal(b1-4)GlcNAc(b1-2)Man(a1-6)]Man(b1-4)GlcNAc(b1-4)GlcNAc", "in_short": "as §1"}, "[3]": {"target": "Gal(b1-4)GlcNAc(b1-2)[Gal(b1-4)GlcNAc(b1-4)]Man(a1-3)[Gal(b1-4)GlcNAc(b1-2)[Gal(b1-4)GlcNAc(b1-6)]Man(a1-6)]Man(b1-4)GlcNAc(b1-4)GlcNAc", "in_short": "as §1"}, "[4]": {"target": "Gal(b1-4)GlcNAc(b1-2)[Gal(b1-4)GlcNAc(b1-4)]Man(a1-3)[GlcNAc(b1-4)][Gal(b1-4)GlcNAc(b1-2)Man(a1-6)]Man(b1-4)GlcNAc(b1-4)GlcNAc", "in_short": "as §1"}, "[5]": {"target": "Gal(b1-4)GlcNAc(b1-2)[Gal(b1-4)GlcNAc(b1-4)]Man(a1-3)[GlcNAc(b1-4)][Gal(b1-4)GlcNAc(b1-2)[Gal(b1-4)GlcNAc(b1-6)]Man(a1-6)]Man(b1-4)GlcNAc(b1-4)GlcNAc", "in_short": "as §1"}, "[6]": {"target": "Gal(b1-4)GlcNAc(b1-2)[Gal(b1-4)GlcNAc(b1-6)]Man(a1-6)[Gal(b1-4)GlcNAc(b1-2)Man(a1-3)]Man(b1-4)GlcNAc(b1-4)GlcNAc", "in_short": "as §1"}, "[7]": {"target": "Gal(b1-4)GlcNAc(b1-2)[Gal(b1-4)GlcNAc(b1-6)]Man(a1-6)[Gal(b1-4)GlcNAc(b1-2)Man(a1-3)]Man(b1-4)GlcNAc(b1-4)[Fuc(a1-6)]GlcNAc", "in_short": "as §1"}, "[8]": {"target": "Gal(b1-4)GlcNAc(b1-2)[Gal(b1-4)GlcNAc(b1-6)]Man(a1-6)[GlcNAc(b1-4)][Gal(b1-4)GlcNAc(b1-2)Man(a1-3)]Man(b1-4)GlcNAc(b1-4)GlcNAc", "in_short": "as §1"}, "[9]": {"target": "Gal(b1-4)GlcNAc(b1-2)[Gal(b1-4)GlcNAc(b1-6)]Man(a1-6)[GlcNAc(b1-4)][Gal(b1-4)GlcNAc(b1-2)[Gal(b1-4)GlcNAc(b1-4)]Man(a1-3)]Man(b1-4)GlcNAc(b1-4)[Fuc(a1-6)]GlcNAc", "in_short": "as §1"}, "[10]": {"target": "Gal(b1-4)GlcNAc(b1-3)Gal(b1-3)GalNAc", "in_short": "as §1"}, "[11]": {"target": "Gal(b1-4)GlcNAc(b1-3)Gal(b1-3)GlcNAc", "in_short": "as §1"}, "[12]": {"target": "Gal(b1-4)GlcNAc(b1-3)Gal(b1-4)Glc", "in_short": "as §1"}, "[13]": {"target": "Gal(b1-4)GlcNAc(b1-3)Gal(b1-4)GlcNAc", "in_short": "as §1"}, "[14]": {"target": "Gal(b1-4)GlcNAc(b1-3)Gal(b1-4)GlcNAc(b1-2)Man(a1-3)[Gal(b1-4)GlcNAc(b1-3)Gal(b1-4)GlcNAc(b1-2)Man(a1-6)]Man(b1-4)GlcNAc(b1-4)GlcNAc", "in_short": "as §1"}, "[15]": {"target": "Gal(b1-4)GlcNAc(b1-3)Gal(b1-4)GlcNAc(b1-2)Man(a1-3)[Gal(b1-4)GlcNAc(b1-3)Gal(b1-4)GlcNAc(b1-2)Man(a1-6)]Man(b1-4)GlcNAc(b1-4)[Fuc(a1-6)]GlcNAc", "in_short": "as §1"}, "[16]": {"target": "Gal(b1-4)GlcNAc(b1-3)Gal(b1-4)GlcNAc(b1-2)[Gal(b1-4)GlcNAc(b1-3)Gal(b1-4)GlcNAc(b1-6)]Man(a1-6)[Gal(b1-4)GlcNAc(b1-3)Gal(b1-4)GlcNAc(b1-2)Man(a1-3)]Man(b1-4)GlcNAc(b1-4)GlcNAc", "in_short": "as §1"}, "[17]": {"target": "Gal(b1-4)GlcNAc(b1-3)Gal(b1-4)GlcNAc(b1-2)[Gal(b1-4)GlcNAc(b1-3)Gal(b1-4)GlcNAc(b1-6)]Man(a1-6)[Gal(b1-4)GlcNAc(b1-3)Gal(b1-4)GlcNAc(b1-2)Man(a1-3)]Man(b1-4)GlcNAc(b1-4)[Fuc(a1-6)]GlcNAc", "in_short": "as §1"}, "[18]": {"target": "Gal(b1-4)GlcNAc(b1-3)Gal(b1-4)GlcNAc(b1-3)Gal(b1-4)GlcNAc", "in_short": "as §1"}, "[19]": {"target": "Gal(b1-4)GlcNAc(b1-3)Gal(b1-4)GlcNAc(b1-3)Gal(b1-4)GlcNAc(b1-2)Man(a1-3)[Gal(b1-4)GlcNAc(b1-3)Gal(b1-4)GlcNAc(b1-3)Gal(b1-4)GlcNAc(b1-2)Man(a1-6)]Man(b1-4)GlcNAc(b1-4)GlcNAc", "in_short": "as §1"}, "[20]": {"target": "Gal(b1-4)GlcNAc(b1-3)Gal(b1-4)GlcNAc(b1-3)Gal(b1-4)GlcNAc(b1-2)Man(a1-3)[Gal(b1-4)GlcNAc(b1-3)Gal(b1-4)GlcNAc(b1-3)Gal(b1-4)GlcNAc(b1-2)Man(a1-6)]Man(b1-4)GlcNAc(b1-4)[Fuc(a1-6)]GlcNAc", "in_short": "as §1"}, "[21]": {"target": "Gal(b1-4)GlcNAc(b1-3)Gal(b1-4)GlcNAc(b1-3)Gal(b1-4)GlcNAc(b1-2)[Gal(b1-4)GlcNAc(b1-3)Gal(b1-4)GlcNAc(b1-3)Gal(b1-4)GlcNAc(b1-6)]Man(a1-6)[Gal(b1-4)GlcNAc(b1-3)Gal(b1-4)GlcNAc(b1-3)Gal(b1-4)GlcNAc(b1-2)Man(a1-3)]Man(b1-4)GlcNAc(b1-4)[Fuc(a1-6)]GlcNAc", "in_short": "as §1"}, "[22]": {"target": "Gal(b1-4)GlcNAc(b1-3)Gal(b1-4)GlcNAc(b1-3)Gal(b1-4)GlcNAc(b1-3)Gal(b1-4)GlcNAc(b1-2)Man(a1-3)[Gal(b1-4)GlcNAc(b1-3)Gal(b1-4)GlcNAc(b1-3)Gal(b1-4)GlcNAc(b1-3)Gal(b1-4)GlcNAc(b1-2)Man(a1-6)]Man(b1-4)GlcNAc(b1-4)GlcNAc", "in_short": "as §1"}},
  "note": "The other results are listed elsewhere or left out.",
  "data": [
    {"binder": "RobpsCRA (Robinia pseudoacacia) (protein) IKGGYWYSGSGLAVSDINPSHFTHLFCAFADLDPNTNKLTISSSNAAAFSTFTQTVRAKNPSVKTLLSIGGGGGRALAAVFANMASQASRRKSFIDSSIQLARRNNFHGLDLDWEYPSSDIDKTNFASLIREWRAAVATESSTSGTPALLLSAAVGGSDQITPLKYYPGEAIANNLDWVNVMTYDLYTSDSYPTLTQPPAPLFYPRGIFSADEGITKWIQSGVPESKLALGLPFYGFKWRLSDPNNHGLFAPATQGLGAVKYKDIVNTGGQVEFDSTYVTNYCFKGTDWYGYDDTQSISAKVAYAKQRGLFGYFAWHIEQDSNWALS", "values": [
      {"measurement": "glycan array binding signal (z-score)", "setting": "[1]", "result": 0.031},
      {"measurement": "glycan array binding signal (z-score)", "setting": "[2]", "result": -0.651},
      {"measurement": "glycan array binding signal (z-score)", "setting": "[3]", "result": -0.233},
      {"measurement": "glycan array binding signal (z-score)", "setting": "[4]", "result": -0.448},
      {"measurement": "glycan array binding signal (z-score)", "setting": "[5]", "result": 0.425},
      {"measurement": "glycan array binding signal (z-score)", "setting": "[6]", "result": -0.824},
      {"measurement": "glycan array binding signal (z-score)", "setting": "[7]", "result": 1.6},
      {"measurement": "glycan array binding signal (z-score)", "setting": "[8]", "result": -0.363},
      {"measurement": "glycan array binding signal (z-score)", "setting": "[9]", "result": 0.189},
      {"measurement": "glycan array binding signal (z-score)", "setting": "[10]", "result": -0.603},
      {"measurement": "glycan array binding signal (z-score)", "setting": "[11]", "result": -0.448},
      {"measurement": "glycan array binding signal (z-score)", "setting": "[12]", "result": -0.529},
      {"measurement": "glycan array binding signal (z-score)", "setting": "[13]", "result": -0.031},
      {"measurement": "glycan array binding signal (z-score)", "setting": "[14]", "result": 1.01},
      {"measurement": "glycan array binding signal (z-score)", "setting": "[15]", "result": 0.024},
      {"measurement": "glycan array binding signal (z-score)", "setting": "[16]", "result": 0.083},
      {"measurement": "glycan array binding signal (z-score)", "setting": "[17]", "result": 0.741},
      {"measurement": "glycan array binding signal (z-score)", "setting": "[18]", "result": 0.868},
      {"measurement": "glycan array binding signal (z-score)", "setting": "[19]", "result": -0.055},
      {"measurement": "glycan array binding signal (z-score)", "setting": "[20]", "result": 0.688},
      {"measurement": "glycan array binding signal (z-score)", "setting": "[21]", "result": 0.384},
      {"measurement": "glycan array binding signal (z-score)", "setting": "[22]", "result": 0.541}
    ]}
  ]
}
